Reference: PubChem BioAssay AID1671190 (National Center for Advancing Translational Sciences (NCATS), 2021)
“And” between values parts separate entries of the source, which are not always exact repeats. Equal values may be shown once. Among all 580,000 compounds or so, about 6,100 (1.1%) were called active. The shares of active, inactive and inconclusive entries below differ from those in the screen. The call rests on the fitted dose curve; in most records, active means well fitted inhibition curve with a large enough effect; inconclusive means small, poorly fitted or top-dose-only effect, or another doubt; inactive means no such curve, though single readings can be large or run the other way. A potency beside an inconclusive call is a rough fit, not a confirmed value.
On the % scale 0 is the no-effect control and ±100 the full control effect; potency means the concentration at half of the fitted maximal effect.

By UniProt entry, the sequences of proteins in these tests, tags left out. Where a name states a change or a piece, a line headed by the entry shows the natural chain unless it says otherwise.
UniProt P18054: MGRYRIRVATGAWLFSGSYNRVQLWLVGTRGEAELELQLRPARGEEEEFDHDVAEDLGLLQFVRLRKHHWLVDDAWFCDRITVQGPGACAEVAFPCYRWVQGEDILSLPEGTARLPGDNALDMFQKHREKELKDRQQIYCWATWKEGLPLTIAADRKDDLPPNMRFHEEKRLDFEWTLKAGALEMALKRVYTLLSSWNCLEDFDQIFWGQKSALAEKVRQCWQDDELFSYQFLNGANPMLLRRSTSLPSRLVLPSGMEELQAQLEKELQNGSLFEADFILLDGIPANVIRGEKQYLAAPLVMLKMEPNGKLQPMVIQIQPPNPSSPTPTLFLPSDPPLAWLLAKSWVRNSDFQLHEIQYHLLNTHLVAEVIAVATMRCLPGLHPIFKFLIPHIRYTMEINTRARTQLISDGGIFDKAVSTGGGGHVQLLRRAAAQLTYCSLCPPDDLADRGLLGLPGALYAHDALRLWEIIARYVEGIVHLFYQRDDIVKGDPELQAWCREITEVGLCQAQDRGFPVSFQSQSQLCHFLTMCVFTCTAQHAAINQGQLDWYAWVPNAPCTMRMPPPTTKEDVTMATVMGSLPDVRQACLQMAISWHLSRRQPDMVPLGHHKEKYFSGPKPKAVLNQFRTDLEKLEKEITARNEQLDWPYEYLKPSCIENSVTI

The compounds below were run against Polyunsaturated fatty acid lipoxygenase ALOX12 (Homo sapiens) (UniProt P18054) (assay: Primary qHTS assay for inhibitors of human arachidonate 12S-lipoxygenase (ALOX12): Round 2). Conditions: purified 12hLO, xylenol orange hydroperoxide absorbance; activity change, negative = inhibition: at 108 µM (top of the series) unless noted.
Summary of the method: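 Purified human 12hLO at 150 nM in 25 mM Hepes, 0.01% Triton X-100, pH 7.0, preincubated 15 min at room temperature with compound. Reaction started with 40 uM arachidonic acid, 30 min at room temperature. Hydroperoxide measured by Fe-xylenol orange, 573/405 nm absorbance ratio.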
With `CC(C)(C)C(=O)Nc1nc2c(s1)COc1ccccc1-2` the Potency was “inactive”.
For `Clc1ccc(C(c2ccccc2Cl)C(Cl)Cl)cc1` (stereo not given), the Potency was inconclusive: 21.7 µM [inhibitor, partial curve].
In the case of `O=C(COc1ccc(F)cc1Br)NCCCN1CCCC1=O`, the Potency is reported as “inactive”.
In the case of `O=C(O)CNC(=O)/C(=C\c1ccc2c(c1)OCO2)NC(=O)c1ccc(Br)cc1`, the Potency is reported as inconclusive: 50.1 µM [inhibitor, partial curve, poor fit].
With `O=C1NC2(CCN(Cc3ccc(OC(F)(F)F)cc3)C2)Oc2ccccc21` (stereo not given) the Potency was inconclusive: 20 µM [inhibitor, full curve].
In the case of `COc1cc(/C=C/c2ccc3cccc(O)c3n2)ccc1O`, the Potency is reported as inconclusive: 35.5 µM [inhibitor, partial curve, poor fit] and inconclusive: 70.8 µM [inhibitor, partial curve, poor fit].
`N#Cc1c(SC(C(=O)O)c2ccccc2)nc2c(c1-c1cccs1)CCCC2` (stereo not given) was tested, and the Potency was inconclusive: 79.4 µM [inhibitor, partial curve, poor fit].
For `CC1(C(=O)NS(=O)(=O)c2ccc(C#N)cc2)CCN1C(=O)CCC1CCCC1` (stereo not given), the Potency was inconclusive: 39.8 µM [inhibitor, partial curve, poor fit].
For `CN(C)CCCN(C(=O)c1cccs1)c1nc2cc3c(cc2s1)OCO3`, the Potency was “inactive”.
`CCOCCCn1c(SC(C)C(=O)NCC2CCCO2)nc2sc(C)c(C)c2c1=O` (stereo not given) was tested, and the Potency was inconclusive: 89.1 µM [inhibitor, single point].
For `COC(=O)C1CCN(C(=O)c2cc(-c3ccco3)nc3ccccc23)CC1`, the Potency was inconclusive: 17.8 µM [inhibitor, single point].
With `COc1ccccc1Nc1ncc2c(n1)CN(C(=O)c1ccc(Oc3ccccc3)cc1)CCN2` the Potency was “inactive”.
For `CCN1C(=S)N[C@@H](c2cccs2)C(C(=O)OC)=C1C`, the Potency was “inactive”.
In the case of `CCC(=O)NC(=S)Nc1ccc(NC(=O)c2ccc(Br)o2)cc1`, the Potency is reported as “inactive”.
`COC(=O)NCc1ccc(OC)c(OC)c1` was tested, and the Potency was inconclusive: 50.1 µM [inhibitor, partial curve, poor fit].
With `NC(=O)c1cc([N+](=O)[O-])ccc1NCc1ccccn1` the Potency was inconclusive: 0.398 µM [inhibitor, full curve].
With `COc1ccc(-n2nc(C3CCCN(C(=O)Cc4cccc(Cl)c4)C3)[nH]c2=O)cc1` (stereo not given) the Potency was inconclusive: 28.2 µM [inhibitor, partial curve].
For `Cc1ccc(N(C(=O)c2ccc(C(C)(C)C)cc2)C2C=CS(=O)(=O)C2)cc1` (stereo not given), the Potency was inconclusive: 44.7 µM [inhibitor, partial curve, poor fit].
In the case of `NS(=O)(=O)c1ccc(NSc2ccccc2[N+](=O)[O-])cc1`, the Potency is reported as inconclusive: 126 µM [inhibitor, partial curve, poor fit].
`O=C(Nc1ccc(-c2nc3cccnc3s2)cc1)c1ccc(Br)o1` was tested, and the Potency was “inactive”.
`Cc1ccc(C(=O)c2coc3c2C(=O)C(=O)c2ccccc2-3)cc1` was tested, and the Potency was inconclusive: 15.8 µM [inhibitor, full curve].
In the case of `Cc1ccc(NC(=O)c2nc[nH]c2C(=O)Nc2ccccc2F)cc1`, the Potency is reported as inconclusive: 35.5 µM [inhibitor, single point].
For `Cc1ccc(CN(Cc2ccco2)C(=O)c2oc3c(C)c(C)ccc3c2C)cc1`, the Potency was inconclusive: 56.2 µM [inhibitor, partial curve, poor fit].
`N#CC1=C(S)N(c2ccccc2)C2(CCCCC2)NC1=O` was tested, and the Potency was “inactive”.
In the case of `COCCNC(=O)c1c(C)oc2c1CN(Cc1cccc(F)c1)CC2`, the Potency is reported as inconclusive: 31.6 µM [inhibitor, partial curve, poor fit].
In the case of `COc1ccc(Cl)cc1NC(=O)c1c(NCc2ccc(C)o2)sc2c1CCCC2`, the Potency is reported as inconclusive: 39.8 µM [inhibitor, partial curve, poor fit].
In the case of `CCOc1ccc(CNC(=O)c2ncoc2-c2cccc(Cl)c2)cc1OC`, the Potency is reported as inconclusive: 2.51 µM [inhibitor, full curve, poor fit].
With `Cc1ccc(CNC(=O)C2CCCN(S(=O)(=O)c3cc(-c4noc(C)n4)ccc3C)C2)cc1` (stereo not given) the Potency was inconclusive: 112 µM [inhibitor, single point].
With `O=[N+]([O-])c1ccc(Br)c2ccncc12` the Potency was inconclusive: 50.1 µM [inhibitor, single point].
For `O=C(O)C1=NOC2CN(Cc3nc4ccccc4s3)CC12` (stereo not given), the Potency was inconclusive: 10 µM [inhibitor, full curve, poor fit].
In the case of `Cc1nc(SCc2cn3cccc(C)c3n2)c2ccccc2n1`, the Potency is reported as inconclusive: 44.7 µM [inhibitor, partial curve, poor fit].
With `CC(C)CN1CCNC(=O)C1CC(=O)NCCCN1CCCc2ccccc21` (stereo not given) the Potency was inconclusive: 35.5 µM [inhibitor, single point].
For `CCOC(=O)c1c(-c2ccccc2)oc2ccc(NS(=O)(=O)c3ccc(C(C)C)cc3)cc12`, the activity change, negative = inhibition was inconclusive: -47.8% [inhibitor].
With `c1ccc2c(c1)ncn2Cc1nnc2sc(-c3ccncc3)nn12` the Potency was “inactive”.
In the case of `c1ccc(CNc2nc(N3CCOc4ccccc43)nc3c2CCCC3)cc1`, the Potency is reported as inconclusive: 4.85 µM [inhibitor, full curve, poor fit].
With `NC(=O)c1cccc(CN2CCC3(CC2)Cc2ccccc2N(C(=O)c2ccc(Cl)cc2)C3)c1` the Potency was inconclusive: 22.4 µM [inhibitor, full curve, poor fit].
`CC(C)=C(/C(=C/CS(=O)(=O)c1ccc(C)cc1)S(=O)(=O)c1ccccc1)S(=O)(=O)c1ccccc1` was tested, and the Potency was inconclusive: 1.58 µM [inhibitor, full curve].
`CN(C)c1ncc2c(n1)C(C)(C(=O)Nc1ccc(Cl)cc1)CCC2` (stereo not given) was tested, and the Potency was “inactive”.
`O=C(O)Cc1cc2ccccc2nc1C(=O)O` was tested, and the Potency was inconclusive: 2 µM [inhibitor, full curve, poor fit].
For `CC(C)(C(=O)c1ccccc1)/[N+]([O-])=C/c1ccccc1`, the Potency was inconclusive: 44.7 µM [inhibitor, partial curve, poor fit].
For `CCCCNC(=O)c1nc(C2CCN(S(=O)(=O)c3ccccc3C(F)(F)F)CC2)oc1-c1ccccc1`, the Potency was “inactive”.
`CNC(=O)NC(=O)CNc1ccccc1N(C)Cc1ccccc1` was tested, and the Potency was inconclusive: 35.5 µM [inhibitor, partial curve, poor fit].
For `CCCCC/C=C\C/C=C\C/C=C\CCCCC(=O)O`, the Potency was inconclusive: 35.5 µM [inhibitor, partial curve].
In the case of `CC1CCCN(C(=O)c2nn(C)c3c2CSc2ccccc2-3)C1` (stereo not given), the Potency is reported as inconclusive: 100 µM [inhibitor, single point].
For `O=C(CSc1ccc(-c2cccnc2)nn1)Nc1ccc(Br)cc1`, the activity change, negative = inhibition was inconclusive: -32.7% [inhibitor].
With `COc1ccc(-n2[nH]c3cc(=O)n(Cc4ccccc4)c(C)c3c2=O)cc1` the Potency was inconclusive: 28.2 µM [inhibitor, partial curve, poor fit].
With `CC(C)(C)N(CC#CCC(O)(c1ccccc1)C1CCCC1)CCO` (stereo not given) the Potency was inconclusive: 50.1 µM [inhibitor, partial curve, poor fit].
With `COc1cc(OC)cc(N(C(=O)CNC(=O)c2cccs2)C(C(=O)NCC2CCCO2)c2ccc(OC)c(OC)c2)c1` (stereo not given) the Potency was inconclusive: 89.1 µM [inhibitor, partial curve, poor fit].
For `O=C(CSc1nnc(-c2ccccc2O)o1)N1CCOCC1`, the Potency was “inactive”.
In the case of `Cc1cc(C)c(NC(=O)CSc2nnc(C)n2C)c(Cl)c1`, the Potency is reported as “inactive”.
For `O=C(CN1CCN(Cc2ccsc2)CC1)Nc1ccccc1C(=O)NC1CCCC1`, the Potency was “inactive”.
For `CCc1ccc(S(=O)(=O)c2nnn(-c3cccc(C)c3)c2N)cc1`, the Potency was inconclusive: 8.91 µM [inhibitor, full curve, poor fit].
With `CCc1ccc(NC(=O)CCn2cnc3ccccc3c2=O)cc1` the Potency was inconclusive: 112 µM [inhibitor, partial curve, poor fit].
`CCN1c2cc(C(=O)NCc3ccc(C(C)C)cc3)ccc2C(=O)N2CCCCCC21` (stereo not given) was tested, and the Potency was “inactive”.
For `CCOc1ccc(S(=O)(=O)N2CCCCC2)cc1NC(=O)Cc1cccs1`, the Potency was “inactive”.
For `Cc1[nH]c2ccccc2c1C(=O)C(=O)Nc1ccc(Cl)c(Cl)c1`, the Potency was inconclusive: 11.2 µM [inhibitor, full curve, poor fit].
`COC(=O)c1c(NC(=O)c2ccccc2[N+](=O)[O-])sc2c1CC(C)(C)NC2(C)C` was tested, and the Potency was “inactive”.
With `CN(Cc1ccco1)Cc1cc(-c2ccnc3cc(Cl)ccc23)ccc1O` the Potency was inconclusive: 112 µM [inhibitor, partial curve, poor fit].
For `CN(C(=O)c1ccccc1-c1ncc[nH]1)C1CCCN(Cc2ccccc2F)C1` (stereo not given), the Potency was inconclusive: 31.6 µM [inhibitor, single point].
`COCC1CCCN(C(=O)c2cc(COc3ccc4ncccc4c3)on2)C1` (stereo not given) was tested, and the Potency was inconclusive: 44.7 µM [inhibitor, partial curve, poor fit].
In the case of `N#Cc1cccc(-c2nccc(-n3ccnc3)n2)c1`, the Potency is reported as active: 25.1 µM.
For `COCCNc1nc(-c2ccccc2OC)nc2ccccc12`, the Potency was inconclusive: 5.62 µM [inhibitor, full curve, poor fit].
`CCOc1cc(CN2CCN(CCOCCO)CC2)ccc1OC` was tested, and the Potency was inconclusive: 3.98 µM [inhibitor, full curve, poor fit].
For `O[C@H]1C[C@H](c2ccccc2)N(CC2CCCCC2)C[C@@H]1n1cc(-c2ccc(F)cc2)nn1`, the Potency was inconclusive: 158 µM [inhibitor, single point].
